The campaign covered roughly 360,000 compounds. About 290 (0.081%) were called active. This list was built around the results that the source calls inconclusive (neither active nor inactive); the mix of calls is not that of the screen. Calls follow the shape of the dose curve; as a rule, active = well fitted activation curve with a large enough effect; inconclusive = small, poorly fitted or top-dose-only effect; inactive = no such curve, though single readings can be large or run the other way. Where the call is inconclusive, the potency comes from a doubtful curve fit.
target: Rap guanine nucleotide exchange factor 4 (Homo sapiens) (UniProt Q8WZA2); assay: qHTS for Agonist of cAMP-regulated guanine nucleotide exchange factor 4 (EPAC2): primary screen; conditions: biochemical qHTS; Potency: EPAC2 activation unless noted; activation: at 154 µM (top of the series), 100% = 6.5 mM cAMP response unless noted; also: nearly all actives have a fitted effect of over 50% in size
Outline: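 Exchange assay: 100 nM EPAC2 with 250 nM Rap1B-BODIPY-GDP and 50 uM GDP. Fluorescence (ex 480/em 540 nm) read every 5 min for 30 min at room temperature. Data normalized to 6.5 mM cAMP as agonist control.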
Potency is read from the fitted curve at half-maximal effect.

Sequences of proteins named here, by UniProt entry; tags and fusion partners are left off. A change or cut given only in a name is not applied to a line headed by its entry.
UniProt Q8WZA2: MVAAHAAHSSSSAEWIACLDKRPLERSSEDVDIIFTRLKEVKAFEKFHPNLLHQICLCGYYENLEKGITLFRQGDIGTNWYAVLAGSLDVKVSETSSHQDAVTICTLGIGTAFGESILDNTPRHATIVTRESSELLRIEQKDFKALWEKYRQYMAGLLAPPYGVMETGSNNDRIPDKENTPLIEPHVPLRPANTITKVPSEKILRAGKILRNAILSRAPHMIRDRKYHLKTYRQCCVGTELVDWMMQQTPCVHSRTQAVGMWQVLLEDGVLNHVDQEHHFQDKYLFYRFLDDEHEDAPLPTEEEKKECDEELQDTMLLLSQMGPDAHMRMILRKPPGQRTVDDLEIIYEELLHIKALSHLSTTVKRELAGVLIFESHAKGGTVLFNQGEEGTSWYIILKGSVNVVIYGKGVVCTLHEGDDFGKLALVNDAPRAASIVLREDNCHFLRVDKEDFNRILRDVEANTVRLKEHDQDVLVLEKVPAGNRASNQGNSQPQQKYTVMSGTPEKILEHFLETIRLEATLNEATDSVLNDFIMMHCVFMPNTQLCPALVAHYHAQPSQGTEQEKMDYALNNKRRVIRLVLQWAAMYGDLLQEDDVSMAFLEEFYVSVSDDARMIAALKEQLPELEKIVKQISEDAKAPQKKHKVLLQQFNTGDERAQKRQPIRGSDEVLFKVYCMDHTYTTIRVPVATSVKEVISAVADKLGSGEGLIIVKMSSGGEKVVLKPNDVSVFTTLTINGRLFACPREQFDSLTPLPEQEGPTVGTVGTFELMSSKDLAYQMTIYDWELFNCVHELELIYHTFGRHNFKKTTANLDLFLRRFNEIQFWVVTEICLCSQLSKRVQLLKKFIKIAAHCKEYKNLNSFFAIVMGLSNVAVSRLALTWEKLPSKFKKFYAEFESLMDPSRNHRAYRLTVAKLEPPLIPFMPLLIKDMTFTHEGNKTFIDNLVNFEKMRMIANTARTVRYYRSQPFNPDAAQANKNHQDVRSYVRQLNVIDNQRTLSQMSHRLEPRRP

Structure (SMILES) | Potency | activation
CC(C)NS(=O)(=O)c1cccc2nsnc12 | inconclusive: 112 µM [activator, single point] | 
CC1CCc2nc3sc4c(c3c(N)c2C1)CCCC4 (stereo not given) |  | inactive: 9.05%
CCn1c(=NC(=O)CS(=O)(=O)c2ccc(F)cc2)sc2cccc(OC)c21 | inconclusive: 50.1 µM [activator, single point] | 
CCOc1ccsc1C(=O)NNC(=O)c1ccco1 |  | inactive: 5.72%
Cc1nn(C)cc1N1C(=O)c2cccc3c(N)ccc(c23)C1=O | inconclusive: 14.1 µM [activator, partial curve, poor fit] | 
O=C(Cc1cccs1)Nc1nc2ccccc2s1 | inconclusive: 50.1 µM [activator, single point] | 
Cc1ccc([C@H]2C[C@@H](O)[C@H](n3cc(COC(=O)c4ccccc4)nn3)CN2C(=O)c2cccs2)cc1 |  | inactive: 26.2%
O=C(C[C@H]1C[C@@H]2c3cc(NC(=O)Nc4ccccc4F)ccc3O[C@@H]2[C@H](CO)O1)NCc1ccccn1 |  | inactive: 4.88%
CCn1c(=O)c(C(=O)NCCCO)c(O)c2ccccc21 |  | inconclusive: 78% [activator] [at 15.6 µM, 100% = 6.5 mM cAMP response]
O=S(=O)(NCc1c(Cl)cccc1Oc1ccccc1)c1ccccc1 | inconclusive: 100 µM [activator, single point] | 
COc1ccc(NC(=O)c2cc(S(=O)(=O)N3CCc4ccccc43)cn2C)cc1OC | inconclusive: 126 µM [activator, single point] | 
Cc1cc(N)c2cc(NC(=O)/C=C/c3ccccc3Cl)ccc2n1 | inconclusive: 63.1 µM [activator, partial curve] | 
Cc1ccc2c(=O)oc(N(C)C)nc2c1 |  | inactive: 24.5%
CN(C)S(=O)(=O)c1ccc(Nc2nc(C3CC3)nc3c2nnn3Cc2ccccc2Cl)cc1 | inconclusive: 35.5 µM [activator, single point] | 
C=CCN(CC=C)c1nc2ccccc2nc1C(C#N)C(=O)OCCOC (stereo not given) | inconclusive: 112 µM [activator, partial curve] | 
Brc1ccc(C2=CC(c3cccs3)n3ncnc3N2)cc1 (stereo not given) | inconclusive: 89.1 µM [activator, partial curve] | 
NC(=O)Cc1ccc(OCc2nn[nH]n2)cc1 | inconclusive: 126 µM [activator, single point] | 
CCOC(=O)C1=C(C)NC(C)=C(C(=O)OCC)C1C | inconclusive: 112 µM [activator, single point] | 
Cc1cc(C)nc(/N=C(\N)Nc2ccc(OCCC(C)C)cc2)n1 |  | inactive: 7.49%
CCC(C#CCN1CCOCC1)(CC)OCCC#N | inconclusive: 6.31 µM [activator, partial curve] | 
COc1ccc(Cn2nnnc2C(C(C)C)N(Cc2ccco2)Cc2cccs2)cc1 (stereo not given) |  | inconclusive: 130% [activator] [at 15.6 µM, 100% = 6.5 mM cAMP response]
COCCOc1cnn(-c2cc(Oc3ccc(C)cc3)ncn2)c(=O)c1Cl |  | inconclusive: -0.0118% [activator]
Cc1ccc(/C(N)=N/OC(=O)c2cc(-c3ccccc3)nc3ccccc23)cc1 | inconclusive: 112 µM [activator, single point] | 
O=C1C(=O)c2cccnc2-c2ncccc21 | inconclusive: 4.47 µM [activator, full curve, poor fit] | 

Structure (SMILES) | Potency | activation
O=[N+]([O-])c1ccc(Cn2cc(-c3cccc(C(F)(F)F)c3)nn2)cc1 |  | inactive: 11.8%
CC1=C(C#N)C(=O)OC(C)(C)C1 | inconclusive: 112 µM [activator, single point] | 
C=CCc1c(C)nc(C)nc1N/N=C/c1ccc([N+](=O)[O-])cc1 | inconclusive: 112 µM [activator, single point] | 
COc1ccc(-c2cc(C(=O)N/N=C/c3cccnc3)c3ccccc3n2)c(OC)c1 | inconclusive: 112 µM [activator, single point] | 
CSc1nc2ccccc2n1C(=O)NC1CCCCC1 |  | inconclusive: 113% [activator] [at 15.6 µM, 100% = 6.5 mM cAMP response]
O=C(NCc1ccco1)Nc1ccc(Br)cc1Cl |  | inactive: 6.12%
CN1CC=C2C(C#N)=C(N)C(C#N)(C#N)[C@H](c3cccc(Cl)c3)C2C1 (stereo not given in full) | inconclusive: 79.4 µM [activator, partial curve, poor fit] | 
O=C(COc1cccc2ccccc12)N/N=C/c1ccccc1OCc1ccc(C(=O)O)cc1 | inconclusive: 100 µM [activator, partial curve] | 
O=c1c(O)c(-c2cccs2)oc2ccccc12 | inconclusive: 100 µM [activator, partial curve] | 
CCOc1ccc(C(=O)Nc2cc(-c3nc4ccccc4[nH]3)ccc2Cl)cc1[N+](=O)[O-] | inconclusive: 89.1 µM [activator, partial curve] | 
COC(=O)c1cc(Br)c(=O)n(Cc2ccc3c(c2)OCO3)c1 |  | inconclusive: 42.1% [activator] [at 15.6 µM, 100% = 6.5 mM cAMP response]
Cc1ccc2nc(-c3ccco3)c(Nc3ccccc3)n2c1 | inconclusive: 126 µM [activator, single point] | 
N#Cc1cc(C(=O)c2cc(F)ccc2O)cn(-c2nccs2)c1=O | active: 112 µM | 
CC1(C)CC(=O)C=C(c2ccc(-c3ccccc3)cc2)C1=O |  | inactive: 6.07%
CN(C)c1ccc(N=Cc2nc(-c3ccccc3)oc2OC(=O)c2cccc(Br)c2)cc1 | inconclusive: 89.1 µM [activator, partial curve] | 
Cn1ccc(=Nc2ccc(NC(=O)c3ccc(N=c4ccn(C)c5ccc([N+](=O)[O-])cc45)cc3)cc2)cc1 | inconclusive: 28.2 µM [activator, full curve] | 
CN(c1ccc(O)cc1)S(=O)(=O)c1ccc2ccccc2c1 |  | inactive: 11.4%
CN(C)CCN(C(=O)c1cccc2ccccc12)c1nc2cc3c(cc2s1)OCO3 | inconclusive: 22.4 µM [activator, full curve, poor fit] | 
CN(C)c1ccc(/C=C/C(=O)c2cccc(Br)c2)cc1 | active: 100 µM | 
CCCCCCn1c(=O)[nH]c2nc3cc(N)c(C)cc3nc2c1=O | inconclusive: 112 µM [activator, single point] | 
CC1=CC2=NC(=O)/C(=C/c3coc4ccccc4c3=O)C(=N)N2O1 | inconclusive: 100 µM [activator, partial curve] | 
Oc1ccc(Cl)c2cccnc12 |  | inactive: 9.44%
CCOC(=O)c1ccc(NC(=O)CSc2n[nH]c(-c3ccncc3)n2)cc1 | inconclusive: 6.31 µM [activator, partial curve] | 
Cc1cc(C)n(-c2ccc(C(=O)OCC(=O)Nc3ccc(Cl)cc3[N+](=O)[O-])cc2)n1 |  | inactive: 4.62%

Structure (SMILES) | Potency | activation
Cc1cccc2nc(-c3cccc(NC(=O)c4ccc(Cl)cc4)c3)cn12 |  | inactive: 12.6%
CN1C/C(=C\c2ccc(N3CCOCC3)cc2)C(=O)/C(=C/c2ccc(N3CCOCC3)cc2)C1 | inconclusive: 39.8 µM [activator, full curve] | 
COc1ccc(OC)c(CNn2c(-c3ccccc3F)nc3ccccc3c2=O)c1 | inconclusive: 31.6 µM [activator, partial curve, poor fit] | 
CC(C)CCNC(=O)COC(=O)c1cc(Br)c(Br)s1 |  | inactive: -13.5%
CC1(C)Cc2c(c(N3CCOCC3)nc3sc4c(NCCN)ncnc4c23)CO1 | inconclusive: 63.1 µM [activator, partial curve] | 
O=C1NC(c2ccccn2)Nc2sc3c(c21)CCC3 (stereo not given) |  | inactive: -4.35%
COC(=O)c1ccc(NC(=O)CCn2cccc2)cc1 | inconclusive: 4.47 µM [activator, full curve, poor fit] | 
O=c1c(-c2ccc(Cl)cc2)[n+]([O-])c2ccccc2n1O |  | inconclusive: 81.9% [activator] [at 15.6 µM, 100% = 6.5 mM cAMP response]
CCc1cc2cc3c(cc2nc1SCC(=O)OC(C)C)OCO3 | inconclusive: 126 µM [activator, single point] | 
COc1cc(/C=C/c2ccc3cccc(O)c3n2)cc(Br)c1OC | inconclusive: 126 µM [activator, single point] | 
CCOc1ccc(-c2nc(CSc3nnc(N)s3)cs2)cc1 | inconclusive: 126 µM [activator, single point] | 
COc1ccc(/C=C/C(=O)c2cc(F)ccc2OC(=O)c2ccccc2)cc1OC |  | inactive: 10.4%
COc1ccc(NS(=O)(=O)c2cc(C)ccc2OC)cc1OC | inconclusive: 126 µM [activator, single point] | 
Cc1c(C(=O)N2CCCCCC2)nnn1-c1nonc1N |  | inconclusive: 32.4% [activator] [at 15.6 µM, 100% = 6.5 mM cAMP response]
O=c1ccc(N=Nc2ccccc2)ccc1O |  | inactive: 9.98%
O=C(Oc1ccc2c(-c3ccccc3)cc(=O)oc2c1)c1cccs1 |  | inactive: 12.8%
COc1ccccc1NC(=O)Cc1ccc(-c2ccccc2)cc1 | inconclusive: 112 µM [activator, partial curve] | 
CC(=O)Nc1ccc(NC(=O)c2cccc3c2-c2ccccc2C3=O)cc1 | inconclusive: 112 µM [activator, single point] | 
COc1ccc(-c2nnc(SCC(=O)Nc3cccnc3Cl)n2C)cc1 |  | inactive: -1.22%
C[n+]1cccc2cccc([O-])c21 | inconclusive: 112 µM [activator, single point] | 
CCCCNc1ccc2c3c(cccc13)C(=O)N(CCCC)C2=O | active: 100 µM | 
O=C(C[C@@H]1CC[C@@H]2[C@H](COC[C@H](O)CN2Cc2cccc(C(F)(F)F)c2)O1)NCc1ccc(Cl)cc1 |  | inactive: 1.63%

Part of the list above, field by field:
CCc1cc2cc3c(cc2nc1SCC(=O)OC(C)C)OCO3
  Potency: inconclusive: 126 µM [activator, single point]
COc1cc(/C=C/c2ccc3cccc(O)c3n2)cc(Br)c1OC
  Potency: inconclusive: 126 µM [activator, single point]
CCOc1ccc(-c2nc(CSc3nnc(N)s3)cs2)cc1
  Potency: inconclusive: 126 µM [activator, single point]
COc1ccc(/C=C/C(=O)c2cc(F)ccc2OC(=O)c2ccccc2)cc1OC
  activation: inactive: 10.4%

From PubChem BioAssay AID720711 (National Center for Advancing Translational Sciences (NCATS), 2013)
